Results deposited as PubChem BioAssay AID504774 (Drosophila RNAi Screening Center, 2011)
The deposit covers about 23,000 reagents; this is an unselected part of those with a known target gene and a result. 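Values are quantile-normalised luminescence on an arbitrary scale; higher means more cells surviving MMS.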 Reagents against one gene are numbered here. Names joined by + are all predicted targets of the reagent. No sequences are given here.

Aim: 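Genes required for cells to withstand methyl methanesulphonate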 (primary screen)
System: Drosophila Kc167 cells
Reagent: long dsRNA against Drosophila genes, about 0.25 µg dsRNA per well
Time to read-out: about 6 days: 3 days knock-down, then 3 days with or without MMS
Treatment: methyl methanesulphonate 0.004% (w/v) for 3 days after knock-down
Read-out: 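Viability in wells given MMS, read as ATP luminescence, normalised by quantiles plate by plate and averaged across replicates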
Reading the numbers: mean viability with MMS and viability with MMS: higher = more surviving cells after MMS

gene	reagent no.	mean viability with MMS	viability with MMS, replicate 1	viability with MMS, replicate 2
CG13045	1	3.44e6	3.96e6	3.80e6
shd	1	3.49e6	4.06e6	3.84e6
TotM	1	3.52e6	4.06e6	3.91e6
CG10505	1	3.65e6	4.14e6	4.13e6
CG4631	1	3.30e6	3.86e6	3.86e6
CG4631	2	3.73e6	4.18e6	4.19e6
Cadps	1	3.61e6	4.17e6	3.98e6
Cadps	2	3.39e6	3.89e6	3.89e6
CG18853	1	3.63e6	4.17e6	4.00e6
Lsp1gamma	1	3.43e6	3.90e6	3.89e6
Nup43	1	3.52e6	3.93e6	4.04e6
CG2061	1	3.88e6	4.58e6	4.34e6
CG11970	1	3.67e6	4.19e6	4.15e6
fz2	1	3.68e6	4.29e6	4.03e6
fz2	2	3.42e6	3.85e6	3.88e6
fz2	3	3.57e6	4.10e6	3.99e6
RpS15	1	3.02e6	3.59e6	3.56e6
RagC-D	1	3.45e6	3.83e6	3.94e6
hd	1	3.49e6	3.99e6	3.95e6
CG11249	1	3.67e6	4.08e6	4.19e6
CG32719	1	3.70e6	4.17e6	4.12e6
CG30047	1	3.50e6	3.94e6	4.02e6
Rab3-GEF	1	3.57e6	4.04e6	4.05e6
Rab3-GEF	2	3.39e6	3.73e6	3.91e6
Rab3-GEF	3	2.92e6	3.49e6	3.50e6
CG12061	1	3.50e6	3.97e6	3.98e6
CysRS-m	1	3.69e6	4.21e6	4.15e6
CG31371	1	3.57e6	4.06e6	4.04e6
RpS19a	1	2.83e6	3.47e6	3.46e6
CG8187	1	3.66e6	4.04e6	4.27e6
5-HT2A	1	3.36e6	3.83e6	3.76e6
Lcp65Ac	1	3.67e6	4.11e6	4.22e6
CG10927	1	3.54e6	4.02e6	3.98e6
TwdlK	1	3.32e6	3.71e6	3.70e6
hig	1	3.34e6	3.83e6	3.71e6
hig	2	3.51e6	4.08e6	3.90e6
hig	3	3.57e6	4.03e6	4.04e6
mdu	1	2.88e6	3.60e6	3.62e6
mdu	2	3.88e6	4.29e6	4.48e6
CG5909	1	3.58e6	4.11e6	4.01e6
ssp5	1	3.79e6	4.30e6	4.29e6
Scgbeta	1	3.70e6	4.12e6	4.15e6
eIF3g2	1	3.57e6	4.23e6	3.85e6
Taf8	1	3.44e6	3.87e6	3.92e6
Cyp305a1	1	3.79e6	4.30e6	4.17e6
CG31268	1	3.39e6	3.87e6	3.80e6
nemy	1	3.46e6	4.00e6	3.91e6
nemy	2	3.42e6	3.91e6	3.81e6

Already shown: an excerpt of the list.
gene	reagent no.	mean viability with MMS	viability with MMS, replicate 1	viability with MMS, replicate 2
Rab3-GEF	2	3.39e6	3.73e6	3.91e6
Rab3-GEF	3	2.92e6	3.49e6	3.50e6
CG12061	1	3.50e6	3.97e6	3.98e6
CysRS-m	1	3.69e6	4.21e6	4.15e6
CG31371	1	3.57e6	4.06e6	4.04e6
RpS19a	1	2.83e6	3.47e6	3.46e6
CG8187	1	3.66e6	4.04e6	4.27e6
5-HT2A	1	3.36e6	3.83e6	3.76e6

More results:
gene	reagent no.	mean viability with MMS	viability with MMS, replicate 1	viability with MMS, replicate 2
CG3534	1	3.48e6	3.88e6	4.00e6
CG2200	1	3.49e6	4.02e6	3.88e6
CG4250	1	3.50e6	3.83e6	4.09e6
Rab2	1	3.57e6	4.00e6	3.98e6
CG34242	1	3.42e6	3.86e6	3.90e6
Drgx	1	3.54e6	4.01e6	4.01e6
Drgx	2	3.64e6	4.15e6	4.06e6
CG13144	1	3.62e6	4.00e6	4.22e6
CG8757	1	3.42e6	3.83e6	3.90e6
CG34277 + CG31542	1	3.40e6	3.94e6	3.84e6
ValRS-m	1	3.42e6	3.91e6	3.84e6
primo-2 + primo-1	1	3.52e6	3.89e6	4.11e6
CG14627	1	3.37e6	3.84e6	3.81e6
CG30178	1	3.47e6	3.97e6	3.93e6
Sh	1	2.91e6	3.52e6	3.53e6
Sh	2	3.61e6	4.02e6	4.11e6
Sh	3	3.53e6	3.83e6	4.19e6
Sh	4	3.56e6	4.00e6	4.08e6
Sh	5	3.80e6	4.26e6	4.20e6
PRL-1	1	3.45e6	3.86e6	3.98e6
Syt4	1	3.54e6	4.03e6	4.00e6
CG14397	1	3.60e6	3.99e6	4.18e6
RunxB	1	3.49e6	3.95e6	4.00e6
RunxB	2	3.54e6	3.95e6	4.10e6
RunxB	3	2.99e6	3.67e6	3.67e6
RunxB	4	3.50e6	3.95e6	4.03e6
CG10068	1	3.54e6	4.00e6	4.03e6
RpL39	1	2.90e6	3.48e6	3.47e6
CG13654	1	3.63e6	4.13e6	4.11e6
MetRS-m	1	3.60e6	4.13e6	4.08e6
MetRS-m	2	3.36e6	3.87e6	3.73e6
CG31807	1	3.51e6	3.90e6	4.06e6
Oatp58Db	1	3.24e6	3.71e6	3.70e6
Ttc19	1	3.53e6	4.01e6	4.00e6
CG15882	1	3.49e6	3.98e6	3.94e6
asRNA:CR42743 + CG34162	1	3.56e6	4.07e6	4.00e6
CG34320 (retired record)	1	3.63e6	4.00e6	4.18e6
CG2962	1	3.64e6	4.29e6	3.99e6
CG32856	1	3.47e6	3.96e6	3.92e6
